The text below walks through data of article PMC7709239.

These are yes or no findings as the source states them, for the method shown. In cells and extracts the contact can be indirect. Binding can be weak; no strength is given. Where a sequence is shown, tags or fusion partners need not be part of it.

For this experiment, the target named is T1, GST-mouse Popdc1 (aa 114 to 357) fusion protein (mouse) (UniProt Q9ES83).
T1 sequence: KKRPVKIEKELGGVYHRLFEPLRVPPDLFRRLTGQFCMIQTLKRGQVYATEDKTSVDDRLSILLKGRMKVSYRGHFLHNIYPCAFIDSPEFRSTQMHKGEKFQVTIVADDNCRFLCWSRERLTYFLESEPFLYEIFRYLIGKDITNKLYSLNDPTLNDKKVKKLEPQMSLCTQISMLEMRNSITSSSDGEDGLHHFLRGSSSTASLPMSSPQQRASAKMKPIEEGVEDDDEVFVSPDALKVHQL
Description: pull-down; GST-mouse Popdc1 on glutathione beads, incubated with RIPA extract of adult rat heart ventricle; western blot with mAb against XIRP1; control: beads alone; only the target purified.

Take “XIRP1 (rat, endogenous in heart ventricle)”: the binding entry was “binds”.
